{"source": "paper doi:10.1101/2020.12.14.422803", "note": "These are yes or no findings as the source states them, for the method shown. Tags and fused reporters may be left off the sequences shown.", "data": [{"target": "ImuA (M. xanthus), yeast two-hybrid fusion (Myxococcus xanthus DK1622)", "experiment": "two-hybrid", "values": [{"binder": "RecF (M. xanthus), yeast two-hybrid fusion (protein, UniProt Q1DFP6 1-380) MRLLALHVHDFRNLPQVQLTPSAHATIAVGQNGQGKTNLLEALYFLATLKPLRAGRLSELVRWGSQGARVTGRFLLKGAEREIAVEVGGGTRQAFVDGKKASSLEDYFGGVSVVAFTPDDLEVVKGGPDSRRGFLDRAVFNRFPAFLRESREYARALKNRNRLLREGHTVDAVYLEAYDETLAKAGARIYSRRRALMAELAPRAQATFASIGRTVDPAVYNYRPAHLEGDFAAADETALAAMLRESLSARLRRDMERGFTSVGPHSDDVSVTLGGRSARAYASQGQQRALVLGWKIAEIENLEAAMGFLPLLLLDDVSSELDPERNAYLMGYLAQSGAQVVLTTTDGSLVRGAAADDTLWLDVHGGQVAVRADAEPPPAN", "binding": "no binding"}, {"binder": "RecO (M. xanthus), yeast two-hybrid fusion (protein, UniProt Q1D7T4 1-244) MERYDDDALVLSSVDYGESDRLVTLLTREHGKLTAFAAGARKSKRRFAGALEPFMRLRVHIVETRGSTVRLDGTDIVAGFYAAREDLSLIARALYAVELCRELTRDHEPQPELFALLESYLTRLDAKEAGPTSLLAFELSALAHAGLMPRFDSCSLCGGAPGERPRFDQAHGGAVCEPCGVRARESVAVPVALLSGLRALQEGARTPLPPELRARARGLLNVFIAHHLGRRLKSVDFMAQVGLD", "binding": "no binding"}, {"binder": "RecR (M. xanthus), yeast two-hybrid fusion (protein, UniProt Q1DAZ9 1-197) MTPDPLNRLVAQLAKLPGIGEKTAQRLAFHILRAPGEYAAELSQAIREVKEKVHLCVRCFSLTDAETCNFCRDARRDERVLCVVETFADLMALERTREFKGRYHVLHGVLSPLEGVGPDQLRIRELLERLNDSRVEELILATNPDVEGEATALYLTRLLKPMGLRVTRIAQGLPMGGDLEFADQATLAKALSARRDL", "binding": "no binding"}, {"binder": "LexA (M. xanthus), yeast two-hybrid fusion (protein, UniProt Q1D406 1-222) MEELTERQREILSFIVKETETRGFPPTIREIGEHMDIRSTNGVNDHLKALERKGYLNRGEQQSRSLVATKRARLLLGLGARKDSGMVEIPLLGKVAAGAPLLAQENMEDSVKIDSFLLGGVNGREVFALRVKGQSMIDDGIHDGDYLFVKKTPSAQPGEIVVALIEDEATVKRYYPEGDRIRFQPANATMQPIYVSRAEFRSTMILGQVVGVYRKLQGGRTP", "binding": "no binding"}]}]}
